Reference: paper PMC2223503

System: receptors for cholecystokinin (CCK)
Assay: storage phosphor autoradiography, binding of [125I]BH-CCK-8 to human pancreatic tissue sections
Conditions: result in words

Substance: ['251]BH-CCK-8: radioligand, specific activity 2200 Ci mmol-1, purchased from New England Nuclear
- specific binding to tumour-free human pancreata: diffusely distributed through the tissue sections of tumour-free pancreata
